Source: the supplement of paper PMC10338343
± gives the standard deviation. The list shows a part of the results, in another mix than the full data. The uncertainty is large for many entries.

The sequences below were run on MIWI (PIWIL1) piRISC loaded with piRNA #2 (30 nt) (assay: pre-steady-state target cleavage rate (min^-1); MIWI and MILI are mouse PIWI proteins and EfPiwi is from a freshwater sponge; tags in brackets are library labels; higher = faster piRNA-guided slicing of the target). Details: guide: piRNA #2 5'p-UUAGGUAACCCAGUAGAUCCAGAGGAAUUC; auxiliary factor: 500 nM mouse GTSF1.
Procedure, shortened: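 Cleave-'n-Seq measured uncleaved targets by sequencing after a transcribed, DNA-blocked target RNA library […] was mixed with 1 nM active affinity-purified piRISC holding one synthetic guide, with or without 500 nM GTSF1 partner protein, at 33 °C in HEPES–potassium acetate buffer for 0–8 or 0–960 min. Counts were normalised to depth and to weakly complementary targets, three trials were pooled, and k3 was capped at 0.0001 min^-1. A burst-and-steady-state fit gave the pre-steady-state cleavage rate.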
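Note: 1 nM active piRISC with 0.1 nM target library at 33 °C single turnover.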

Sequence	pre-steady-state target cleavage rate
CUUAAGGAGACCUACAACUGCGUUACCUAA	0.00266 ± 0.0034
CUAUUCCUCUGGAUCUAGACGGUUACCUAA	0.000265 ± 0.026
CUUAAGGAGACCUACUACUGGGUUAUCUAA	0.00246 ± 0.0047
CUUAAGGAGACCUAGUCUGGGUUACCUAA	0.00132 ± 0.0055
CUUAAGGAGACCUACUACUGGGAAACCUAA	0.00101 ± 0.0062
CUUAAGGACUGGAUCUUCUGGGAUACCUAA	0.00469 ± 0.011
GUAUUCCUCAGGAUCUACUGGGUUACCUAA	0.0863 ± 0.033
CUUAAGGAGACGAUCUACUGGGCUACCUAA	0.00133 ± 0.0087
CUUAAGGAGACGAUCUUCUGGGUUACGUAA	0.00237 ± 0.003
CUUAAGGAGACCAUUACUGGGUUACCUAA	0.0026 ± 0.0045
CUUAAGGAGACCUACACUGGGUUACCUAA	0.000759 ± 0.011
CUUAAGGAGACCAUCUACAGGGUAACCUAA	0.00126 ± 0.0076
CUUAAGGAGACCAUCUACUGGGAAACCUAA	0.000846 ± 0.011
CUUAAGGAGACCUAGAUGACGGUUACAUAA	0.000349 ± 0.015
CUAUUCCUCGGAUCUACUGGGUUACCUAA	0.447 ± 0.083
CUUAAGGAGACCAUCUACUGGGUUACCUCAA	0.00151 ± 0.0051
CUUAAGGAGAGGAUCUACUGGGUUCCUAA	0.000891 ± 0.0084
CUUAAGGAGUGGAUCUACUCGGUUACCUUA	0.00449 ± 0.007
CUUAAGGAGACGAUCAACUGGGUUUCCUAA	0.00101 ± 0.01
CUUAAGGACUGGAUCUAGAGGGUUACCUAA	0.00162 ± 0.0062
CUUAAGGAGACCUAGUACUGGGUUAGCUAA	0.000319 ± 0.014
CUUAAGCUCUGGAUCUACUGGUGUUACCUAA	0.000581 ± 0.017
CUUAAGGUCUGGAUCUACAUGGGUUACCUAA	0.000481 ± 0.013

Sequence	pre-steady-state target cleavage rate
CUUAAGGAGACGAUCUUCUGGGUUACCUUA	0.00136 ± 0.0049
CUUAACCUCUGGAUCUACUGCGGUUACCUAA	0.0011 ± 0.0057
CUUAAGGAGAGCAUCUACUCGGUUACCUAA	0.000848 ± 0.0052
CAAUUCCUCUGGAUCUACUGUGGUUACCUAA	0.00325 ± 0.0047
CUUAAGGACUGCAUCUACUCGGUUACCUAA	0.000798 ± 0.027
CUUAAGGAGACCAUCUACUGGGUUUGCUAA	0.00131 ± 0.0084
CUUAAGGAGACCUUCUACUGGUUUACCUAA	0.00179 ± 0.0067
CUUUACCUCUGGAUCUACUCGGUUACCUAA	0.0688 ± 0.0087
GAAUUCCUCUGGAACUACUGGGUUUCCUAA	0.646 ± 0.21
CUUAAGGAGAGGAUCUACAGGGUUACCUUA	0.00106 ± 0.0083
CUUAAGGAGUCCUUCUACUGGGUUACCUAA	0.003 ± 0.0034
CUUAAGGAGACGAUGUACUGGGUUACCUAA	0.000265 ± 0.013
GAAUUCCUCUGGAUCUACUGGCAAACCUAA	0.00289 ± 0.0033
CUUAAGGAGACCUUCUACUGCCAUACCUAA	0.000756 ± 0.0081
CUUAAGGAGACCAUGUACUGGGUUACCAAA	0.000687 ± 0.011
CUUAAGGAGAGGAUCUACAGGGUUUCCUAA	0.00122 ± 0.0074
CUUAAGGAGACGAUUACUGGGUUACCUAA	0.000843 ± 0.0094
CUUAAGGAGACCUAGUACACCGUUACCUAA	0.000994 ± 0.0091
CUUAAGGAGACGUUCUACUGGGUUUCCUAA	0.00163 ± 0.0054
CUUAAGGAGACCUAGAGCUGGGUUACCUAA	0.000472 ± 0.026
CUUAAGGAGACCAUCUAGUCGGUUACCUAA	0.000311 ± 0.019
CUUAAGGAGAGGAUCUACUGGGAAUCCUAA	0.000544 ± 0.014
CUUAAGGAGACCUACUACUCGGUUACGUAA	0.000321 ± 0.01

Sequence	pre-steady-state target cleavage rate
CUUAAGGAGACCAACUACUGGGUUACGUAA	0.00389 ± 0.004
GAAUUCCUCUGGAUCUCACUGGGUUACCUAA	0.00338 ± 0.0043
CUUAAGGAGUGGAUCUACAUGGGUUACCUAA	0.000105 ± 0.063
CUUAAGGACUGGAUCUACUGGGUUUGCUAA	0.0111 ± 0.012
CUUAAGGACUGGAACUACUGGCUUACCUAA	0.00413 ± 0.01
CUAUUCCUCUGGAUCUACUGAGGUUACCUAA	0.00457 ± 0.0048
CUUAAGGAGUGGAUCAUCUGGGUUACCUAA	0.000444 ± 0.022
CUUAAGGAGAGGAUCUACUGGGUUAGCUAA	0.00343 ± 0.0055
CUUAAGGAGUGCAUCUACUGGGUUACCUUA	0.00336 ± 0.0034
CUUAAGGAGACGAUCUACUGGAGUUACCUAA	0.00171 ± 0.0056
CUUAAGGAGACCUUGUACUGGGUUACGUAA	0.0003 ± 0.019
CUAUUCCUCUUGAUCUACUGGGUUACCUAA	0.767 ± 0.04
CUUAAGGAGACGAUCUAACUGGGUUACCUAA	0.000677 ± 0.01
CUUAAGGAGACCUUCUACUGGGUUACGCUAA	0.00146 ± 0.0057
CUUAAGGAGACCUAGAUGACCGUUACCAUA [g4:g9:cont:t1A]	0.000235 ± 0.021
CUUAAGGAGACCAUCUACUGGGUUAACCUAA	0.00219 ± 0.0053
CUUAAGGAGAGGAACUACAGGGUUACCUAA	0.000187 ± 0.043
CUUAAGGAGUCGAUCUACUCGGUUACCUAA	0.00128 ± 0.0078
CUUUUCCACUGGAUCUACAGGGUUACCUAA	0.248 ± 0.016
CUUAAGGAGACGAUUUACUGGGUUACCUAA	0.0014 ± 0.0041
CAUUUCCUCUGGUUCUACUGGGUUACCUAA	0.772 ± 0.046
CUUAAGGACUGGAUCUACUGGGUUAGCAAA	0.00107 ± 0.019
CUUAAGGAGACCUUCUACUGGGUUAACUAA	0.00168 ± 0.005

Sequence	pre-steady-state target cleavage rate
CUUAAGGAGACGUUCUACUGGGUUACGUAA	0.000448 ± 0.013
CUUAAGGAGACGUUCUACUGGGUAACCUAA	0.000182 ± 0.026
CUUAAGGAGUGGAACUACUGCGUUACCUAA	0.00567 ± 0.0083
CUUAAGGAGACGAUACUACUGGGUUACCUAA	0.000774 ± 0.0086
GAAUACCUCUGGAUCUACUGGGUAACCUAA	0.168 ± 0.035
CUUAAGGACUGGAUCUACUGCGUUUCCUAA	0.0102 ± 0.015
CUUAAGGAGACCUUGUACUGCGUUACCUAA	0.000508 ± 0.0095
CUUAAGGAGUGCAUCUACUGGGUUAGCUAA	0.00105 ± 0.0083
CUUAAGGAGACCUUCUGCUGGGUUACCUAA	0.00273 ± 0.0064
CUUAAGGAGACCUAGAUCGGGGUUACCUAA	0.000594 ± 0.0099
CUUAAGGAGACCAACUACUGGGUUACCUAA	0.00287 ± 0.0036
CUUAAGGACUGGUUCAACUGGGUUACCUAA	0.00896 ± 0.014
CUUAAGGAGACCUUCAACUGGGUUAGCUAA	0.000216 ± 0.019
CAAUUCCUCUGGAUCUACUGGGUUACCUGAA	0.438 ± 0.14
CUUAAGGAGACCUAGAUCUGGGUACCUAA	0.000141 ± 0.033
GAAUUCCUCUGGAUCUUGAGGGUUACCUAA	0.00301 ± 0.005
CUUAAGGAGAGGAUCUACUGGGAUACCUUA	0.000292 ± 0.02
CUUAAGGAGAGGAUCUACUGGGUAUACCUAA	0.0037 ± 0.0043
CUUAAGGAGUGCAUCUUCUGGGUUACCUAA	0.000628 ± 0.019
GAAUUCCACUCGAUCUACUGGGUUACCUAA	0.564 ± 0.056
CUUAAGGAGACGAUCUACUGCGGUUACCUAA	0.0011 ± 0.0061
CAAUUCCUCUGGAUCUACUGGGUUUGGAUA [g7:g29:cont:t1A]	0.00294 ± 0.0059

Another view of part of the listing above.

| Sequence | pre-steady-state target cleavage rate |
| --- | --- |
| CUUAAGGAGAGGAACUACAGGGUUACCUAA | 0.000187 ± 0.043 |
| CUUAAGGAGUCGAUCUACUCGGUUACCUAA | 0.00128 ± 0.0078 |
| CUUUUCCACUGGAUCUACAGGGUUACCUAA | 0.248 ± 0.016 |
